PubChem BioAssay AID743121 – NCATS | 2013
Purpose: 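Partners whose loss is lethal together with topoisomerase I blockade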 (primary screen). System: MDA-MB-231 cells, a human breast cancer line. Reagents: single siRNA against human genes, 20 nM siRNA (0.8 pmol per well). Timing: 120 h (drug added 48 h after transfection, read 72 h later). Challenge: camptothecin 20 nM (about EC30) for 72 h; vehicle 0.1% DMSO in parallel plates. Read-out: 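Cell viability by ATP luminescence (CellTiter-Glo) as % of non-targeting siRNA wells, and the log2 ratio of viability without drug over viability with camptothecin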. Scale: log2 vehicle/camptothecin viability: higher = stronger sensitisation to camptothecin. Call rule: 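Active genes have an RSA gene-level p-value below 0.001, computed from the ratios of their separate siRNAs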.
The deposit covers about 26,000 reagents; below is an unselected part. Of all reagents, 167 (0.63%) are marked active. 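Calls are per gene from RSA p-values that are not deposited; an individual active-marked siRNA can sensitise only weakly.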 A number with no mark means an inactive call. Reagents against one gene are numbered here. Not all columns of the deposit are shown.

Knock-down of CCNA2 (cyclin A2) #1 gave: log2 vehicle/camptothecin viability 0.0596.
With knock-down of CCNA2 (cyclin A2) #2, the screen gave log2 vehicle/camptothecin viability -0.161.
Knock-down of CCNA2 (cyclin A2) #3 resulted in: log2 vehicle/camptothecin viability -0.338.
CCNA2 (cyclin A2) #4 gave log2 vehicle/camptothecin viability 0.031.
For P4HB (prolyl 4-hydroxylase subunit beta) #1, the entry reads log2 vehicle/camptothecin viability -0.0962.
For P4HB (prolyl 4-hydroxylase subunit beta) #2, the values are log2 vehicle/camptothecin viability -0.104.
With knock-down of P4HB (prolyl 4-hydroxylase subunit beta) #3 the results were log2 vehicle/camptothecin viability -0.279.
With knock-down of SNRNP25 (small nuclear ribonucleoprotein U11/U12 subunit 25) #1 the results were log2 vehicle/camptothecin viability -0.288.
SNRNP25 (small nuclear ribonucleoprotein U11/U12 subunit 25) #2 gave log2 vehicle/camptothecin viability -0.282.
Silencing of AKR1C3 (aldo-keto reductase family 1 member C3) #1 resulted in: log2 vehicle/camptothecin viability 0.0241.
AKR1C3 (aldo-keto reductase family 1 member C3) #2 scored log2 vehicle/camptothecin viability -0.181.
AKR1C3 (aldo-keto reductase family 1 member C3) #3 scored log2 vehicle/camptothecin viability -0.0624.
Against AKR1C3 (aldo-keto reductase family 1 member C3) #4, the values are log2 vehicle/camptothecin viability -0.229.
For SETD7 (SET domain containing 7, histone lysine methyltransferase) #1, the values are log2 vehicle/camptothecin viability -0.0655.
Knock-down of SETD7 (SET domain containing 7, histone lysine methyltransferase) #2 resulted in: log2 vehicle/camptothecin viability 0.228.
For SETD7 (SET domain containing 7, histone lysine methyltransferase) #3, the values are log2 vehicle/camptothecin viability -0.186.
With knock-down of HRH4 (histamine receptor H4) #1, the screen gave log2 vehicle/camptothecin viability -0.152.
After knock-down of HRH4 (histamine receptor H4) #2, the record shows log2 vehicle/camptothecin viability -0.21.
Against HRH4 (histamine receptor H4) #3 the deposit lists log2 vehicle/camptothecin viability -0.387.
With knock-down of HRH4 (histamine receptor H4) #4 the results were log2 vehicle/camptothecin viability -0.371.
With knock-down of RECQL4 (RecQ like helicase 4) #1, the record shows log2 vehicle/camptothecin viability -0.31.
RECQL4 (RecQ like helicase 4) #2 scored log2 vehicle/camptothecin viability 0.223.
After knock-down of RECQL4 (RecQ like helicase 4) #3, the record shows log2 vehicle/camptothecin viability -0.245.
Depletion of LIN7C (lin-7 cell polarity scaffold C) #1 resulted in: log2 vehicle/camptothecin viability -0.241.
After knock-down of LIN7C (lin-7 cell polarity scaffold C) #2, the screen gave log2 vehicle/camptothecin viability -0.0806.
Silencing of LIN7C (lin-7 cell polarity scaffold C) #3 gave: log2 vehicle/camptothecin viability -0.032.
Depletion of LIN7C (lin-7 cell polarity scaffold C) #4 resulted in: log2 vehicle/camptothecin viability -0.156.
With knock-down of PPP2R3A (protein phosphatase 2 regulatory subunit B''alpha) #1, the record shows log2 vehicle/camptothecin viability -0.15.
With knock-down of PPP2R3A (protein phosphatase 2 regulatory subunit B''alpha) #2, the screen gave log2 vehicle/camptothecin viability -0.479.
Knock-down of PPP2R3A (protein phosphatase 2 regulatory subunit B''alpha) #3 resulted in: log2 vehicle/camptothecin viability -0.341.
With knock-down of PPP2R3A (protein phosphatase 2 regulatory subunit B''alpha) #4 the results were log2 vehicle/camptothecin viability -0.441.
Depletion of ADGRE3 (adhesion G protein-coupled receptor E3) #1 came out at: log2 vehicle/camptothecin viability -0.243.
With knock-down of ADGRE3 (adhesion G protein-coupled receptor E3) #2, the screen gave log2 vehicle/camptothecin viability -0.413.
Against ADGRE3 (adhesion G protein-coupled receptor E3) #3, the entry reads log2 vehicle/camptothecin viability 0.396.
For ADGRE3 (adhesion G protein-coupled receptor E3) #4 the deposit lists log2 vehicle/camptothecin viability 0.0719.

Single entries from above.
Under “log2 vehicle/camptothecin viability”, AKR1C3 (aldo-keto reductase family 1 member C3) #3 has -0.0624
SNRNP25 (small nuclear ribonucleoprotein U11/U12 subunit 25) #1, log2 vehicle/camptothecin viability: -0.288
Result of PPP2R3A (protein phosphatase 2 regulatory subunit B''alpha) #2 in “log2 vehicle/camptothecin viability”: -0.479
Value for LIN7C (lin-7 cell polarity scaffold C) #2 in “log2 vehicle/camptothecin viability”: -0.0806
